The supplement of paper PMC4604168 (melanoma cell lines)
Some of the results follow. Many values rest on one well or one pass, so single values are uncertain.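 Imaging used 1,536-well plates; nuclei positive for cleaved PARP by antibody were divided by total DNA-stained nuclei to yield the apoptosis fraction. Doses for screening kept most cells viable, and cell lines differ markedly in resting and induced cleaved-PARP levels.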

test system: COLO800; assay: cleaved PARP positive nuclei fraction relative to DMSO control; melanoma cells; higher = more apoptosis; conditions: library dose: low library concentration; 72 h

| SMILES | cleaved PARP positive nuclei fraction |
| --- | --- |
| CCN(CC)CCCCNc1ncc2cc(-c3cc(OC)cc(OC)c3)c(NC(=O)NC(C)(C)C)nc2n1 + COc1cc(N2CCC(N3CCN(C)CC3)CC2)ccc1Nc1ncc(Cl)c(Nc2ccccc2S(=O)(=O)C(C)C)n1 [NVP-TAE684] (first compound 0.1 µM, partner dose 0.08 µM) | 202% |
| O=C(Nc1ccccc1)c1cc([N+](=O)[O-])ccc1Cl + Cc1cc([N+](=O)[O-])ccc1NS(=O)(=O)c1cc(Cl)ccc1Cl [FH535] (first compound 2 µM, partner dose 1 µM) | 115% |
| COc1ccc(-c2ccc3c(N4CCOCC4)nc(N4C[C@@H](C)O[C@@H](C)C4)nc3n2)cc1CO + Cn1cc(/C=C2\C(=O)Nc3cccnc32)c2ccccc21 [GW441756] (first compound 0.02 µM, partner dose 0.4 µM) | 72.4% |
| COc1cc2c(Oc3ccc4[nH]c(C)cc4c3F)ncnc2cc1OCCCN1CCCC1 [cediranib] + O=c1cc(-c2cccc3c2Sc2ccccc2S3)oc(N2CCOCC2)c1 [KU55933] (first compound 0.4 µM, partner dose 1 µM) | 89.5% |

test system: COLO829; assay: as above; conditions: library dose: low library concentration; 72 h

| SMILES | cleaved PARP positive nuclei fraction |
| --- | --- |
| O=C(Nc1ccccc1)c1cc([N+](=O)[O-])ccc1Cl + O=S(=O)(c1ccccc1)N(CC(F)(F)F)c1ccc(C(O)(C(F)(F)F)C(F)(F)F)cc1 [T0901317] (first compound 2 µM, partner dose 1.4 µM) | 142% |
| CN(C)S(=O)(=O)c1ccc2c(c1)/C(=C/c1cc3c([nH]1)CCCC3)C(=O)N2 + NCC(=O)Nc1ccc(-n2nc(C(F)(F)F)cc2-c2ccc3c(ccc4ccccc43)c2)cc1 [OSU03012] (first compound 0.4 µM, partner dose 1 µM) | 124% |
| N#Cc1c(O)c2c(-c3ccc(-c4ccccc4O)cc3)csc2[nH]c1=O + O=S(=O)(c1ccccc1)N(CC(F)(F)F)c1ccc(C(O)(C(F)(F)F)C(F)(F)F)cc1 [T0901317] (first compound 2 µM, partner dose 1.4 µM) | 96.5% |
| NCC(=O)Nc1ccc(-n2nc(C(F)(F)F)cc2-c2ccc3c(ccc4ccccc43)c2)cc1 + COc1cc2c(Oc3ccc4[nH]c(C)cc4c3F)ncnc2cc1OCCCN1CCCC1 [cediranib] (first compound 1 µM, partner dose 0.4 µM) | 116% |
| CN(NC(=O)CC(=O)NN(C)C(=S)c1ccccc1)C(=S)c1ccccc1 + c1cc(-c2cnn3cc(-c4ccc(OCCN5CCCCC5)cc4)cnc23)ccn1 [Dorsomorphin] (first compound 0.006 µM, partner dose 0.4 µM) | 178% |
| COc1cc2c(Oc3ccc4[nH]c(C)cc4c3F)ncnc2cc1OCCCN1CCCC1 [cediranib] + c1cc(-c2cnn3cc(-c4ccc(OCCN5CCCCC5)cc4)cnc23)ccn1 [Dorsomorphin] (first compound 0.4 µM, partner dose 0.4 µM) | 85.2% |
| CN(NC(=O)CC(=O)NN(C)C(=S)c1ccccc1)C(=S)c1ccccc1 + N#Cc1c(O)c2c(-c3ccc(-c4ccccc4O)cc3)csc2[nH]c1=O [A769662] (first compound 0.006 µM, partner dose 2 µM) | 194% |
| O=C(O)c1ccc(-c2c[nH]c3ncc(-c4ccccc4)cc23)cc1C1CCCC1 + CN(NC(=O)CC(=O)NN(C)C(=S)c1ccccc1)C(=S)c1ccccc1 [STA4783] (first compound 0.16 µM, partner dose 0.006 µM) | 175% |
| CN(C)S(=O)(=O)c1ccc2c(c1)/C(=C/c1cc3c([nH]1)CCCC3)C(=O)N2 + CC(C)CCN1c2nc(Nc3cc(F)c(O)c(F)c3)ncc2N(C)C(=O)C1C [BID1870] (first compound 0.4 µM, partner dose 0.2 µM) | 79.1% |
| CN(NC(=O)CC(=O)NN(C)C(=S)c1ccccc1)C(=S)c1ccccc1 + COc1cc2c(Oc3ccc4[nH]c(C)cc4c3F)ncnc2cc1OCCCN1CCCC1 [cediranib] (first compound 0.006 µM, partner dose 0.4 µM) | 93.8% |
| COC(=O)c1sccc1S(=O)(=O)Nc1ccc(Nc2ccccc2)cc1OC + COc1ccc(-c2ccc3c(N4CCOCC4)nc(N4C[C@@H](C)O[C@@H](C)C4)nc3n2)cc1CO [KU0063794] (first compound 1 µM, partner dose 0.02 µM) | 41.9% |

As entered above.
Entry of CN(NC(=O)CC(=O)NN(C)C(=S)c1ccccc1)C(=S)c1ccccc1 + N#Cc1c(O)c2c(-c3ccc(-c4ccccc4O)cc3)csc2[nH]c1=O [A769662] (first compound 0.006 µM, partner dose 2 µM) under cleaved PARP positive nuclei fraction: 194%
Entry of CN(C)S(=O)(=O)c1ccc2c(c1)/C(=C/c1cc3c([nH]1)CCCC3)C(=O)N2 + CC(C)CCN1c2nc(Nc3cc(F)c(O)c(F)c3)ncc2N(C)C(=O)C1C [BID1870] (first compound 0.4 µM, partner dose 0.2 µM) under cleaved PARP positive nuclei fraction: 79.1%
